Reference: the supplement of paper PMC12819154, “High-throughput peptide-centric local stability assay extends protein–ligand identification to membrane proteins, tissues and bacteria” (Nature Structural & Molecular Biology, 2025)
This is one part of the list. Most entries show no effect beyond the scatter of the controls.

Protein sequences, listed by entry. Tags and fused reporters are not part of them. Lines headed by an entry give the natural chain unless they say otherwise; changes in a name come on top.
UniProt Q49AG3: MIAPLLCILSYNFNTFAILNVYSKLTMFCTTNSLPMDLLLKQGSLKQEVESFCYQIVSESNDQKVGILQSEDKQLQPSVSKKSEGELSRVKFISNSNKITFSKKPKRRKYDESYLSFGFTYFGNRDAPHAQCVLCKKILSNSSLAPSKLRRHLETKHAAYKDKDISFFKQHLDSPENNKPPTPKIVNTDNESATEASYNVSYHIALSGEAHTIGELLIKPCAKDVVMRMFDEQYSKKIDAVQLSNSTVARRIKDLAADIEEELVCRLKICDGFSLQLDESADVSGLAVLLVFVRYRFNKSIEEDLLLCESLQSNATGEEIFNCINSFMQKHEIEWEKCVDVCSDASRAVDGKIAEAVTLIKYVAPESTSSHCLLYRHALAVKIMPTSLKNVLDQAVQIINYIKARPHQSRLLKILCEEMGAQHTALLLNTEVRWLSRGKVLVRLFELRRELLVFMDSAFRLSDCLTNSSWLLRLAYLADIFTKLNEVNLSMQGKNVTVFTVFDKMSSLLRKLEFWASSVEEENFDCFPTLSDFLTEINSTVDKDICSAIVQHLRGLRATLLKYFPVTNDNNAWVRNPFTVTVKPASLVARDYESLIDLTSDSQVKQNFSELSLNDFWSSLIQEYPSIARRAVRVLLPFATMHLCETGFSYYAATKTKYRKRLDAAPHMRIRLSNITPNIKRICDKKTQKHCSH
UniProt Q2M3W8: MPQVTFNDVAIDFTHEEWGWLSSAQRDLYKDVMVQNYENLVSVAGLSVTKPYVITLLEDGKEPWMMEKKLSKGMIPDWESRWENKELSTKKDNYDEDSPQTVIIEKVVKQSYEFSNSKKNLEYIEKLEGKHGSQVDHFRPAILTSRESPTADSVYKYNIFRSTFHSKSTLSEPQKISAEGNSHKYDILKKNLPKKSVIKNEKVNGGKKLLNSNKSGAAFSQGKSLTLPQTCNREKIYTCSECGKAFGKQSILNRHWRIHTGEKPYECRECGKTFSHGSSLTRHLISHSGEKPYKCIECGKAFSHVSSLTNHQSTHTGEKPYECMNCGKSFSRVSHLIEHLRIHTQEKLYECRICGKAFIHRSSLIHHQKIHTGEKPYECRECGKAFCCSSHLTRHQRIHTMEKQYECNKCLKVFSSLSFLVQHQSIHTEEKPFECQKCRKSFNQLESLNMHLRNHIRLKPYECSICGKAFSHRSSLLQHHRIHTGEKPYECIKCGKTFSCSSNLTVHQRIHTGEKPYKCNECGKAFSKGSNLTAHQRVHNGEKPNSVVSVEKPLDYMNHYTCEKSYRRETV
UniProt Q16526: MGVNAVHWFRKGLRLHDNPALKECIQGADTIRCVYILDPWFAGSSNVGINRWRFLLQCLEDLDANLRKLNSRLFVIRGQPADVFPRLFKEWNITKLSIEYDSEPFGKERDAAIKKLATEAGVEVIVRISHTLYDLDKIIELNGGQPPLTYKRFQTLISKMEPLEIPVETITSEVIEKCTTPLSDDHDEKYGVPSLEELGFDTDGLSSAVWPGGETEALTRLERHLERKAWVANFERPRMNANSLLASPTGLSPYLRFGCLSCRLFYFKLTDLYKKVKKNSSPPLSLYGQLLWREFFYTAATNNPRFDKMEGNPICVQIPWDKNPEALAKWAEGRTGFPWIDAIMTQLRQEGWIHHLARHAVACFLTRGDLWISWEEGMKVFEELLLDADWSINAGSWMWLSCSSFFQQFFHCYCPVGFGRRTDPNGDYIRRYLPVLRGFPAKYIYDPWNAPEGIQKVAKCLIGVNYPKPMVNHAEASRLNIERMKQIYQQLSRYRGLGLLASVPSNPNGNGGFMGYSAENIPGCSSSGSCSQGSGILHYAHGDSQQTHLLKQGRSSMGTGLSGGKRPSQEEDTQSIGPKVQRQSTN
UniProt Q15121, whole entry: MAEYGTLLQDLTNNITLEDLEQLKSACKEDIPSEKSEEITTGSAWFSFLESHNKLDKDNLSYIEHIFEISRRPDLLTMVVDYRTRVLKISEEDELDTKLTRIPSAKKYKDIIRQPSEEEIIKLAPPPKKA
UniProt Q16222: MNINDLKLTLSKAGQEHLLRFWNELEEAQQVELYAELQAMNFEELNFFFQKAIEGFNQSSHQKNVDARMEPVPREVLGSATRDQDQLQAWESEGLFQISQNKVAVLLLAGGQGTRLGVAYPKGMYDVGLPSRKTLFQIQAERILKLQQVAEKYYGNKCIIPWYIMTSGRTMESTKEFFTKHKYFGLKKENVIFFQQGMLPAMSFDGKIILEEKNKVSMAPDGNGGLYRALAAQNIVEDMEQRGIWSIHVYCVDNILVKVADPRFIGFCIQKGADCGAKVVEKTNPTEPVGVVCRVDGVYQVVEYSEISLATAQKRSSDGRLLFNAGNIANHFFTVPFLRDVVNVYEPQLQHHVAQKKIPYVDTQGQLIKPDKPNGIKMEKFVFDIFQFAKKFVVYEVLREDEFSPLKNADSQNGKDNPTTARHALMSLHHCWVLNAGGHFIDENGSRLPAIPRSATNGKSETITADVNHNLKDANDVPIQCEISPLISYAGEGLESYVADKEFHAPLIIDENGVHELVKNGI
UniProt Q15637: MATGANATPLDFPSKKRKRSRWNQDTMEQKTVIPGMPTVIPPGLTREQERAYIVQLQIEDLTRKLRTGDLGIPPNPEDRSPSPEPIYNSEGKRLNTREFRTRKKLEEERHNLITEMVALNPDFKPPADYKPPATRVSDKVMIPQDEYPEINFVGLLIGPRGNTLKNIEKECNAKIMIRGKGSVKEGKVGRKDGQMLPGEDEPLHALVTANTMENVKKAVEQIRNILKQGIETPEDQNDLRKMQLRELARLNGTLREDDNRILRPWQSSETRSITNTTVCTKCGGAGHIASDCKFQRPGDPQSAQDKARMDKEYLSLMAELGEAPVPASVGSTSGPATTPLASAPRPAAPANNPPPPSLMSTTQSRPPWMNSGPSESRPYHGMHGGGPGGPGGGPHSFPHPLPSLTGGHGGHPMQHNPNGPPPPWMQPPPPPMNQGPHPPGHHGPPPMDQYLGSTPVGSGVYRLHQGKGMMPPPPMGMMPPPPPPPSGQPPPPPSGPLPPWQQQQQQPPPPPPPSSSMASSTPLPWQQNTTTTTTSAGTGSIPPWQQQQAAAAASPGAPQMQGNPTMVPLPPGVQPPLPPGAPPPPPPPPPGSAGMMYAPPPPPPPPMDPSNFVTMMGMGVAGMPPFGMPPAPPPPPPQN
UniProt Q16560: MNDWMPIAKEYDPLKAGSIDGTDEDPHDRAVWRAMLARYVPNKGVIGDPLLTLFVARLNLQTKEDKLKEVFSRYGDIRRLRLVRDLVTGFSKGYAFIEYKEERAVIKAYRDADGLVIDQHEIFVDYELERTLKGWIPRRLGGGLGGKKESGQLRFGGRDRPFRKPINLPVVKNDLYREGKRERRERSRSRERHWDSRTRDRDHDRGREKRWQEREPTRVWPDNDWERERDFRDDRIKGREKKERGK
UniProt Q15398: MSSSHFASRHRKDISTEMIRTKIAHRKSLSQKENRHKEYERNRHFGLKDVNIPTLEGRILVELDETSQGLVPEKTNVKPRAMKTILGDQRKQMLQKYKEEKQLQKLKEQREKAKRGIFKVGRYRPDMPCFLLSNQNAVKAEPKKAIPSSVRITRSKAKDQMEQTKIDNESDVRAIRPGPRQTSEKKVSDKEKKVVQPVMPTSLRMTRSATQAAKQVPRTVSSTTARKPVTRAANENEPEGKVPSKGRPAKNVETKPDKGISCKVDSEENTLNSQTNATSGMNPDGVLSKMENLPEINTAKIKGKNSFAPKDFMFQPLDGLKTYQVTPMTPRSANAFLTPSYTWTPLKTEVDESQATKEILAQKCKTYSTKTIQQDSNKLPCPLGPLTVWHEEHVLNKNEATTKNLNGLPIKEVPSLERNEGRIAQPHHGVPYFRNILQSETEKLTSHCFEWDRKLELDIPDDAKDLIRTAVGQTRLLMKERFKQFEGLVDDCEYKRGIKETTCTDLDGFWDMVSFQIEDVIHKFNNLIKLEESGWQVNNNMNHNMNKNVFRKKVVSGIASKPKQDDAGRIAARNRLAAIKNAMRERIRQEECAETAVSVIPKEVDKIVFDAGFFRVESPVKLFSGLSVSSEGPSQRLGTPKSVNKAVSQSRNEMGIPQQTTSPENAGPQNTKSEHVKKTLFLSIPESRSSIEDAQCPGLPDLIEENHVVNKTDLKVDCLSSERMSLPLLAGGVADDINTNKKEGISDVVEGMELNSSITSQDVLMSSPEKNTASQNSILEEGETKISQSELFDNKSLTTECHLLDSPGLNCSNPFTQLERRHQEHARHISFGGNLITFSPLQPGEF
UniProt Q15102: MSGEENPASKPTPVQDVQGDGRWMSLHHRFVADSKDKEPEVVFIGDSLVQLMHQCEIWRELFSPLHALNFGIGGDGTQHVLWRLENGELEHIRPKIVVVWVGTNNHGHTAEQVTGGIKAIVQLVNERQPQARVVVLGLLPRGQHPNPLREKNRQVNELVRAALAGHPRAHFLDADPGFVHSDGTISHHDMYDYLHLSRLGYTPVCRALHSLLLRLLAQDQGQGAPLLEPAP
UniProt Q15345: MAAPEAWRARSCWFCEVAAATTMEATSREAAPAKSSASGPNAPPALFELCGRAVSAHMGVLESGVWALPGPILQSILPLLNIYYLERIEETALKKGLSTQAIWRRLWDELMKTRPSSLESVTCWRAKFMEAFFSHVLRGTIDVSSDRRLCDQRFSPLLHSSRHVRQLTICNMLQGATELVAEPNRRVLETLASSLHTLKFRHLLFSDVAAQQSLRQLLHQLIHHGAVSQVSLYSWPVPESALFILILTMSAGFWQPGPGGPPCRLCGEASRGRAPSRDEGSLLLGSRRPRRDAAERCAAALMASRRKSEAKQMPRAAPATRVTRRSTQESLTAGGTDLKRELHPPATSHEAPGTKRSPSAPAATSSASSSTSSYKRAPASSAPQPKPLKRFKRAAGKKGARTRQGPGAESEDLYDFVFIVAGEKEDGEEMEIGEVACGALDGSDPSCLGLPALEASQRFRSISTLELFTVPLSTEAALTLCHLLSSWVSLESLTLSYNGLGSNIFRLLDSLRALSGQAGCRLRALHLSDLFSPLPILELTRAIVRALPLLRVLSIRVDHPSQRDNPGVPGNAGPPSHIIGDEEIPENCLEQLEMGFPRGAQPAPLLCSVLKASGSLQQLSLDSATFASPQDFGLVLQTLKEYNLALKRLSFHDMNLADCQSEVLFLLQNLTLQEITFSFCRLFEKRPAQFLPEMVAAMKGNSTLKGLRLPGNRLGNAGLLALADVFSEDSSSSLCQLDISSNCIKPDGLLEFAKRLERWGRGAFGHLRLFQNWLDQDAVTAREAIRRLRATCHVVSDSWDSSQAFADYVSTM
UniProt Q155Q3: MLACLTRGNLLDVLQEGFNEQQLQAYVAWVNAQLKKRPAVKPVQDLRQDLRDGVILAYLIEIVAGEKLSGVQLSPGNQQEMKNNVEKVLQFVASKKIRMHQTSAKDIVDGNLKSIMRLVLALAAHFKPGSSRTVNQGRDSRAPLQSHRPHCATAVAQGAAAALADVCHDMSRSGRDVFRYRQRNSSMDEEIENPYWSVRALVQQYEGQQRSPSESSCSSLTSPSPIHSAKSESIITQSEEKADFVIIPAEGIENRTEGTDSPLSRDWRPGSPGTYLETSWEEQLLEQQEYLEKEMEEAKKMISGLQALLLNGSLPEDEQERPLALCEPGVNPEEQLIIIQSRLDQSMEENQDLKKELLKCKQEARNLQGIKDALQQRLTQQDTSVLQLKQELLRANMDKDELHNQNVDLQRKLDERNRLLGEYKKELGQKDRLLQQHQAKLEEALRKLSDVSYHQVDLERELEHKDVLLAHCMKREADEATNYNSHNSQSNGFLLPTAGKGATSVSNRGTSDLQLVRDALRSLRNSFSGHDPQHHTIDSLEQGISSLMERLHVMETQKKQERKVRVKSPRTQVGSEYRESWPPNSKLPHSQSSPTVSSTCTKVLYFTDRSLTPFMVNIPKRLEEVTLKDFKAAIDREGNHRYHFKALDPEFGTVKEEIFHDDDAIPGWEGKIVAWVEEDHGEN
UniProt Q495B1: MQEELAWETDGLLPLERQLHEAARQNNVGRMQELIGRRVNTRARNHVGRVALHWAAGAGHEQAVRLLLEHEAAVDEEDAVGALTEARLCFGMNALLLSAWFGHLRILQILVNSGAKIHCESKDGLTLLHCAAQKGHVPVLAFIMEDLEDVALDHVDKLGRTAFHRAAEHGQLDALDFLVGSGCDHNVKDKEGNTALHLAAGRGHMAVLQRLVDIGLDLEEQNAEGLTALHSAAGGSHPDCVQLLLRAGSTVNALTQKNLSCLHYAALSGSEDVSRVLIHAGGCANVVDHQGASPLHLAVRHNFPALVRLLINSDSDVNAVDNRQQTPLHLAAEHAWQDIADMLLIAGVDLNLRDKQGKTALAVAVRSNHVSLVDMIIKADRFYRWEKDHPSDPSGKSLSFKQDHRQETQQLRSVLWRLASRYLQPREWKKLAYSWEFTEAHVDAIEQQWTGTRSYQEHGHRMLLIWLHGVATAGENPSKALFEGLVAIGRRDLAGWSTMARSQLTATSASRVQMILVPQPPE

These targets were tested with CN[C@@H]1C[C@H]2O[C@@](C)([C@@H]1OC)n1c3ccccc3c3c4c(c5c6ccccc6n2c5c31)C(=O)NC4 [staurosporine] (assay: log2 fold change of tryptic peptide abundance, ligand vs vehicle (limited proteolysis) (log2 ratio); higher = more trypsin-susceptible (destabilized)). Details: ligand concentration: 20 uM; sample: K562 cleared lysate; digestion: 4 min, 22 C (HT-PELSA RT4min, Orbitrap Astral).
“UniProt Q3SXZ3 (peptide sequence: DVMLENYR, peptide start residue: 35)” gave a log2 fold change of -0.00335.
Work on “RBBP5 (peptide sequence: TTNIELQGVPNDEVHPLLGVKGDGK, peptide start residue: 454) (UniProt Q15291)” yielded a log2 fold change of -0.277.
In the case of “HADH (peptide sequence: FAGLHFFNPVPVMK, peptide start residue: 166) (UniProt Q16836)”, the log2 fold change is reported as 0.747.
“TAF12 (peptide sequence: QWNMWIPGFGSEEIRPYKK, peptide start residue: 123) (UniProt Q16514)” gave a log2 fold change of -0.228.
“SLC1A5 (peptide sequence: HYRGPAGDATVASEK, peptide start residue: 523) (UniProt Q15758)” gave a log2 fold change of 0.391.
“PFKFB4 (peptide sequence: SFEFFLPDNEEGLKIR, peptide start residue: 88) (UniProt Q16877)” was tested, and the log2 fold change was -0.223.
For “ZBED5 (peptide sequence: KIDAVQLSNSTVAR, peptide start residue: 237) (UniProt Q49AG3)”, the log2 fold change was -0.5.
For “UniProt Q2M3W8 (peptide sequence: ESPTADSVYK, peptide start residue: 147)”, the log2 fold change was -0.0612.
With “CRY1 (peptide sequence: SSMGTGLSGGK, peptide start residue: 555) (UniProt Q16526)” the log2 fold change was 0.141.
“C18orf21 (peptide sequence: MLLSQNESQK, peptide start residue: 192) (UniProt Q32NC0)” showed a log2 fold change of -0.324.
“UniProt Q16760 (peptide sequence: SETELLLSGK, peptide start residue: 1050)” gave a log2 fold change of 0.144.
For “CCDC6 (peptide sequence: LASLQQENKVLK, peptide start residue: 63) (UniProt Q16204)”, the log2 fold change was 1.08.
Target “PEA15 (peptide sequence: DIIRQPSEEEIIK, peptide start residue: 110) (UniProt Q15121)” has a log2 fold change of -0.111.
“ZSWIM7 (peptide sequence: TCQQLSVSDK, peptide start residue: 117) (UniProt Q19AV6)” was tested, and the log2 fold change was -0.805.
For “UAP1 (peptide sequence: DVVNVYEPQLQHHVAQK, peptide start residue: 340) (UniProt Q16222)”, the log2 fold change was -0.473.
With “UniProt Q2TAY7 (peptide sequence: GVTCLSFSK, peptide start residue: 309)” the log2 fold change was -0.514.
Work on “SF1 (peptide sequence: NIEKECNAK, peptide start residue: 166) (UniProt Q15637)” yielded a log2 fold change of 0.136.
In the case of “PFKFB3 (peptide sequence: LPYEQWK, peptide start residue: 313) (UniProt Q16875)”, the log2 fold change is reported as 0.435.
In the case of “TAF5 (peptide sequence: GNETMLDFR, peptide start residue: 293) (UniProt Q15542)”, the log2 fold change is reported as -0.28.
“SNRNP35 (peptide sequence: VWPDNDWER, peptide start residue: 219) (UniProt Q16560)” was tested, and the log2 fold change was -0.24.
With “SF3A1 (peptide sequence: HKVSEFK, peptide start residue: 96) (UniProt Q15459)” the log2 fold change was 0.255.
For “SEC23A (peptide sequence: FGEYHKDDPSSFR, peptide start residue: 557) (UniProt Q15436)”, the log2 fold change was 0.257.
With “SHROOM1 (peptide sequence: SRAPAPGTAGR, peptide start residue: 201) (UniProt Q2M3G4)” the log2 fold change was 0.579.
In the case of “ADRM1 (peptide sequence: DKKDEEEDMSLD, peptide start residue: 396) (UniProt Q16186)”, the log2 fold change is reported as -0.193.
Work on “DLGAP5 (peptide sequence: ILVELDETSQGLVPEK, peptide start residue: 59) (UniProt Q15398)” yielded a log2 fold change of -0.395.
“UniProt Q16825 (peptide sequence: TLSASAAEVAPR, peptide start residue: 656)” showed a log2 fold change of 0.763.
“PAFAH1B3 (peptide sequence: ELFSPLHALNFGIGGDGTQHVLWR, peptide start residue: 60) (UniProt Q15102)” gave a log2 fold change of -0.268.
Work on “LRRC41 (peptide sequence: APASSAPQPKPLKR, peptide start residue: 377) (UniProt Q15345)” yielded a log2 fold change of -0.44.
“FSCN1 (peptide sequence: VNASASSLK, peptide start residue: 33) (UniProt Q16658)” was tested, and the log2 fold change was -0.248.
“UniProt Q15257 (peptide sequence: VSEMWNEVHEEKEQAAK, peptide start residue: 70)” gave a log2 fold change of -0.261.
In the case of “UniProt Q155Q3 (peptide sequence: ALVQQYEGQQR, peptide start residue: 200)”, the log2 fold change is reported as -0.448.
“TAF9 (peptide sequence: ATVDADDVR, peptide start residue: 64) (UniProt Q16594)” was tested, and the log2 fold change was 0.282.
Work on “SF3B3 (peptide sequence: LVYILNR, peptide start residue: 140) (UniProt Q15393)” yielded a log2 fold change of -0.24.
Target “UniProt Q495B1 (peptide sequence: RVNTRAR, peptide start residue: 38)” has a log2 fold change of 0.0817.
In the case of “SSX2 (peptide sequence: ATLPPFMCNK, peptide start residue: 65) (UniProt Q16385)”, the log2 fold change is reported as 0.118.
“UniProt Q3ZLR7 (peptide sequence: PQQEQSDCPPPPELR, peptide start residue: 249)” showed a log2 fold change of 0.0717.
